# Screen size: about 330,000 compounds; about 7,700 (2.3%) were called active. The shares of active, inactive and inconclusive entries below differ from those in the screen. The call rests on the fitted dose curve; in most records, active means well fitted inhibition curve with a large enough effect; inconclusive means small, poorly fitted or top-dose-only effect, or effect the other way; inactive means flat fitted curve, though single readings scatter. Potencies beside an inconclusive call are fits to weak or partial responses and may not hold up.
# Assay: qHTS screen for small molecules that inhibit ELG1-dependent DNA repair in human embryonic kidney (HEK293T) cells expressing luciferase-tagged ELG1; further: nearly all actives have a fitted effect of over 55% in size
# Conditions: HEK293T ELG1-luciferase reporter, luminescence, 16 h, DNA damage induced by 5-fluorouridine; series mostly up to 46.1 µM
# How it was run: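 HEK293T cells expressing luciferase-tagged ELG1 (2,000/well) received 5-Fluorouridine plus compound or DMSO for 16 hr at 37 °C. Luciferase was read by ONE-Glo luminescence after 30 min at room temperature.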
# Potency means the concentration at half of the fitted maximal effect.
row,Compound,Potency
1,O=C(Nc1ccccc1)c1ccccc1OCC(O)CN1C(=O)c2ccccc2S1(=O)=O (stereo not drawn),"inconclusive: 22.4 µM [inhibitor, partial curve, poor fit]"
2,CCn1c(=N)c(C(=O)NCc2cccnc2)cc2c(=O)n3cccc(C)c3nc21,inactive
3,N#CC1CC(c2ccccc2)=NN1c1ccccc1[N+](=O)[O-] (stereo not drawn),"inconclusive: 20.6 µM [activator, partial curve]"
4,COc1ccccc1-c1nnc(Nc2nc3c(OC)cccc3s2)o1,"inconclusive: 6.51 µM [activator, single point]"
5,O=C(NCc1cccs1)Nc1ccc2c(c1)OCO2,"inconclusive: 18.4 µM [activator, partial curve]"
6,Cc1ccc(SCC(=O)N2CCC(C(N)=O)CC2)cc1,"inconclusive: 0.146 µM [inhibitor, full curve]"
7,Cc1nc(NC(=O)c2ccc(Br)o2)sc1C,"inconclusive: 8.2 µM [activator, partial curve]"
8,COc1ccc2cc3c(N)nn(C(=O)Cc4c[nH]c5ccccc45)c3nc2c1,active: 1.46 µM
9,O=C(c1ccco1)N(c1ccccn1)c1ccccn1,inactive
10,O=C(c1ccc(Cl)c(S(=O)(=O)N2CCOCC2)c1)N(Cc1ccco1)Cc1cccs1,"inconclusive: 10.3 µM [inhibitor, partial curve]"
11,CC1=C(C(=O)Nc2ccc(CC(=O)NCc3ccc(OC(C)C)cc3)cc2)SCCO1,"inconclusive: 14.6 µM [activator, partial curve]"
12,COc1ccc2[nH]cc(C(O)CN3CCN(c4ccccc4F)CC3)c2c1 (stereo not drawn),"inconclusive: 20.6 µM [inhibitor, single point]"
13,CSc1nsc(NC(=O)Cc2ccccc2)n1,"inconclusive: 25.9 µM [activator, single point]"
14,CN(C)C(=O)CCc1ccc2c3c([nH]c2c1)[C@]1(CCC2CCCC2)[C@@H](C(=O)N2CCOCC2)C[C@H](CC(=O)NCc2ccco2)C(=O)N1CC3,inactive
15,Cc1cccnc1NC(=O)/C=C/c1ccc2c(c1)OCO2,"inconclusive: 6.51 µM [activator, partial curve]"
16,CCNc1nc(SCCOc2ccccc2)nc(N(C)C)n1,"inconclusive: 16.4 µM [inhibitor, partial curve, poor fit]"
17,CC(C)N1C/C(=C/c2ccsc2)C(=O)/C(=C/c2ccsc2)C1,active: 18.4 µM
18,Cc1onc(-c2ccccc2)c1C(=O)N/N=C/c1cc2c(cc1Br)OCO2,"inconclusive: 16.4 µM [inhibitor, single point]"
19,Cc1ccc(Cl)cc1N1CCN(C(=O)CSc2nnc3n2C(C)(C)Cc2ccccc2-3)CC1,active: 11.6 µM
20,CCOC(=O)c1cnc2sc3c(n2c1=O)CCCC3,inactive
21,CCOCCOC(=O)C(C)Oc1ccc(Oc2nc(Cl)ccc2Cl)cc1 (stereo not drawn),"inconclusive: 32.6 µM [activator, partial curve, poor fit]"
22,Cc1ccc(S(=O)(=O)C2C(=O)N(C)C3(C)CC2c2ccccc2O3)cc1 (stereo not drawn),inactive

# Some values from the results shown:
# Potency, `CC1=C(C(=O)Nc2ccc(CC(=O)NCc3ccc(OC(C)C)cc3)cc2)SCCO1` is entered as inconclusive: 14.6 µM [activator, partial curve]
# Potency, `CSc1nsc(NC(=O)Cc2ccccc2)n1` is entered as inconclusive: 25.9 µM [activator, single point]

# (list continues)

row,Compound,Potency
1,Cc1ccc(NC(=O)CCNS(=O)(=O)c2ccc3[nH]c(=O)oc3c2)cc1F,inactive
2,CCOc1ccccc1/C=C/c1onc(C)c1S(=O)(=O)N1CCC(C(=O)NC(C)(C)C)CC1,"inconclusive: 14.6 µM [inhibitor, partial curve, poor fit]"
3,CC1=Nc2ccccc2N=C(NC(=O)c2ccccc2)C1c1ccccc1 (stereo not drawn),"inconclusive: 29.1 µM [inhibitor, single point]"
4,C[C@]12CCC(=O)C=C1CC[C@@H]1[C@@H]2[C@@H](O)C[C@@]2(C)[C@H]1CC[C@]2(O)C(=O)COC(=O)CCC(=O)O,inactive
5,Cc1ccc(S(=O)(=O)N2CCOCC2)cc1NC(=O)COc1ccc2c(C)cc(=O)oc2c1,"inconclusive: 11.6 µM [inhibitor, partial curve, poor fit]"
6,Cc1cccc(-n2c(C)nc3cc(C(=O)NCc4ccc5c(c4)OCO5)ccc32)c1,"inconclusive: 32.6 µM [inhibitor, single point]"
7,O=C(COC(=O)c1cccc([N+](=O)[O-])c1)Nc1ccc(Cl)cn1,"inconclusive: 4.61 µM [activator, single point]"
8,CC(=O)N(Cc1nc2sc(C)c(C)c2c(=O)[nH]1)C1CCCC1,inactive
9,Cc1ccc(S(=O)(=O)N2CCCCC2)cc1C(=O)NCCCN1CCOCC1,inactive
10,Cc1ccc(Cn2nnc3c(=O)[nH]c(C4CCN(S(=O)(=O)/C=C/c5ccccc5)CC4)nc32)cc1,"inconclusive: 32.6 µM [inhibitor, single point]"
11,O=C(Nc1cccc(Cl)c1)Nc1cccc(C(=O)O)c1,"inconclusive: 4.61 µM [activator, single point]"
12,COc1ccc(-c2cc(-c3ccccc3)nc(SCC(=O)Nc3ncc(C)s3)c2C#N)cc1,"inconclusive: 4.61 µM [inhibitor, full curve]"
13,Cc1ccc(S(=O)(=O)N2CCCC2CNC(=O)c2ccc(F)c(F)c2)cc1 (stereo not drawn),inactive
14,CC(=O)c1c(C)[nH]c(C(=O)OCc2cccc(C)c2)c1C,"inconclusive: 29.1 µM [activator, single point]"
15,CC(=O)NCCc1nc2cc(NC(=O)c3ccccc3C)ccc2n1C,"inconclusive: 15.8 µM [activator, single point]"
16,CC(C)(C)c1ccc(-c2n[nH]c(=S)n2Cc2ccccc2)cc1,inactive
17,CC(=O)Nc1ccc(C(=O)CSc2nc3ccc(C)cc3[nH]2)cc1,"inconclusive: 14.6 µM [activator, partial curve]"
18,Cc1[nH]c2ccc(-c3n[nH]c(=S)n3C)cc2c1C,"inconclusive: 16.4 µM [activator, partial curve]"
19,Cc1ccc(N=Cc2c(O)n(-c3nccs3)c(=O)c3ccccc23)cc1,active: 18.4 µM
20,COc1cc(NC(=O)CN(C)Cc2ccc(OC(F)F)cc2)c(C)cc1[N+](=O)[O-],"inconclusive: 18.4 µM [inhibitor, single point]"
21,COC(=O)c1cc(S(=O)(=O)N2CCN(c3ccc(C(C)=O)cc3)CC2)cn1C,"inconclusive: 14.6 µM [activator, single point]"

# Source: PubChem BioAssay AID504467 (National Center for Advancing Translational Sciences (NCATS), 2011)
